From PMC3825632 come the findings set out here.

Amino acid sequences for entries named in this document (tags omitted).
UniProt Q9ESJ4: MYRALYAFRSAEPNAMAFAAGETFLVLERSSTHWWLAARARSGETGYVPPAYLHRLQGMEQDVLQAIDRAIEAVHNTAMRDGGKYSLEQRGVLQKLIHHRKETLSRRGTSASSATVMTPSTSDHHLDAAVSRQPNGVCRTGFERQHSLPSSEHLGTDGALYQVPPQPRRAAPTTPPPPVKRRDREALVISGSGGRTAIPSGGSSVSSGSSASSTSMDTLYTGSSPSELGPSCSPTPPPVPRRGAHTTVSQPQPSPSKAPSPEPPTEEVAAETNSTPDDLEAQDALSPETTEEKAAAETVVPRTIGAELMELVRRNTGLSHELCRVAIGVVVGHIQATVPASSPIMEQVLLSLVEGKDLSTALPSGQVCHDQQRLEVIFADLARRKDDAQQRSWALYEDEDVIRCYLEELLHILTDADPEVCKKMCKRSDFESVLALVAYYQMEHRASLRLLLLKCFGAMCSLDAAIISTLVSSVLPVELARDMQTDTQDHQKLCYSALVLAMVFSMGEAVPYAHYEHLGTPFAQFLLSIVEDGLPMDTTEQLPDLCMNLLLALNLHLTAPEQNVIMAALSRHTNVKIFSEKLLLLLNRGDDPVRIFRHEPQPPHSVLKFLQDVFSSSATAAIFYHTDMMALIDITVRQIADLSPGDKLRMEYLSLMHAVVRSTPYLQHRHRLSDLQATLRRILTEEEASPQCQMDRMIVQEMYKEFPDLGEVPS

No constants are given. Whether binding was seen depends on the method and setting. In cells and extracts the contact can be indirect. Some entries that bind do so weakly or less than the wild type.

The test has as its target T1, STEP61 (striatal-enriched protein tyrosine phosphatase) (mouse (endogenous in mouse brain)) (UniProt P54830).
T1 sequence: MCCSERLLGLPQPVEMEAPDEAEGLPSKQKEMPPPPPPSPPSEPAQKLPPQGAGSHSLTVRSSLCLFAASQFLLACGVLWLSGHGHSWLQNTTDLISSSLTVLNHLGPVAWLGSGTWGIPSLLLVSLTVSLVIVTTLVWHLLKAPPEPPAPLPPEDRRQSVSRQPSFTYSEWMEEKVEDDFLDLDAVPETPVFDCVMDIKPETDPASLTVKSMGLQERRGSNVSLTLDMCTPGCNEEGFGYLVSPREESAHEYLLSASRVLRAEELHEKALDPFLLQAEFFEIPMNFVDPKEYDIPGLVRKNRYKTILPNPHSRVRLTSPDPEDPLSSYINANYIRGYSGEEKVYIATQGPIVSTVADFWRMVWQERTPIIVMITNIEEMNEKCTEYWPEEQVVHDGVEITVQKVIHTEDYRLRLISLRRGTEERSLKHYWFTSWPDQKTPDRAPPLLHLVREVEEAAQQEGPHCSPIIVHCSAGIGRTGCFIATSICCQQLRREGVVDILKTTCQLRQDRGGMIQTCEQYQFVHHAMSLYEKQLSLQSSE
In words: co-IP; mouse brain crude synaptosomal (P2) fraction extracted in modified RIPA buffer; immunoprecipitated with anti-STEP antibody or normal mouse serum.

In the case of SPIN90 (from UniProt Q9ESJ4 1-714), the binding entry is listed as “binds”.
